Experimental data reported in article PMC4985585.
No constants are given. Whether binding was seen depends on the method and setting. Binding seen in cells or lysates may run through a third protein. A yes stands for co-enrichment or nearness to the bait. Other partners may have been found.

Sequences of proteins named here, by UniProt entry; tags and fusion partners are left off. Residues count along the entry.
UniProt Q9ERK7: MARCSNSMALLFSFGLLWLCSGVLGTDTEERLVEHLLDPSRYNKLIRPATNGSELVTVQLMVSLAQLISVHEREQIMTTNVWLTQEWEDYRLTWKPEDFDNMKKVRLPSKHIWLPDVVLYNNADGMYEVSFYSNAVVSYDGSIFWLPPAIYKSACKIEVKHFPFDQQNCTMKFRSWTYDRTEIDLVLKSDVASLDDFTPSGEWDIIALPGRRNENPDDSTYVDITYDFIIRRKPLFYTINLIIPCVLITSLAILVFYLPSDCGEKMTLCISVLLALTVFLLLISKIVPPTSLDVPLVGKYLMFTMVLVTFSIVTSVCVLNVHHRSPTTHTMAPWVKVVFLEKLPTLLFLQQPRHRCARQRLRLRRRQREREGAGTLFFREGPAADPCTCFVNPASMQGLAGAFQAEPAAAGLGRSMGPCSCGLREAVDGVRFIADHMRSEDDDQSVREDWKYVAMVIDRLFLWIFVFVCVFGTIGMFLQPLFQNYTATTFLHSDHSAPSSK
UniProt Q9DCX2: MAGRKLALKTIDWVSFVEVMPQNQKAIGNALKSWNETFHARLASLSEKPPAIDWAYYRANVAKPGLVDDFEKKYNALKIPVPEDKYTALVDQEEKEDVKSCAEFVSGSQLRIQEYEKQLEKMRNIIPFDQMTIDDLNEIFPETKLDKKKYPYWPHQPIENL
UniProt P43006: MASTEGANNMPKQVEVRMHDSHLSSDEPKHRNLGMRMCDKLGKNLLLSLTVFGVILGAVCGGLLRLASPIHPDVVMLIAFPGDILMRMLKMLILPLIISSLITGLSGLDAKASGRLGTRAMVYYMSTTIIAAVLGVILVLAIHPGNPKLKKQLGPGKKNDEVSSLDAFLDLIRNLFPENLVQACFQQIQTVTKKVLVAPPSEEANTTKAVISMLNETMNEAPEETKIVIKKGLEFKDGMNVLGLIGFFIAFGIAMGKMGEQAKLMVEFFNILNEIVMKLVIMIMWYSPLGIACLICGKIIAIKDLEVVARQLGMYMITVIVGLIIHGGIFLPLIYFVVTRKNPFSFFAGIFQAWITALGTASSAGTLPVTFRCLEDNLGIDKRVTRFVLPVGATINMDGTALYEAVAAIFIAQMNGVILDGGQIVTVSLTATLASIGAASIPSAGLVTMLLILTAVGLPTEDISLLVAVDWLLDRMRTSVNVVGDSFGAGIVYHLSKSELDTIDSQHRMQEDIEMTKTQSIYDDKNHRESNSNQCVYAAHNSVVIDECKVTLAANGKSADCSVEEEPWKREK
UniProt P15105: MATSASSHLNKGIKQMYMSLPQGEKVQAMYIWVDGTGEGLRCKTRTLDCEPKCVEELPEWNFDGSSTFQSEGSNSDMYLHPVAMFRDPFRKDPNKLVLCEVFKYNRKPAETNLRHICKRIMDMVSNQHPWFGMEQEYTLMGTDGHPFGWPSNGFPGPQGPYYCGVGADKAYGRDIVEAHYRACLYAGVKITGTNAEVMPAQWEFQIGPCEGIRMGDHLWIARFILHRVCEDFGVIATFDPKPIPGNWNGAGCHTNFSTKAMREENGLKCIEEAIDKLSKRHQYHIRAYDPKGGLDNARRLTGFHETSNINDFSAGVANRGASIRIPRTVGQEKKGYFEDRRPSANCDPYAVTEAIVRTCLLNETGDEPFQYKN
UniProt Q9CQ75: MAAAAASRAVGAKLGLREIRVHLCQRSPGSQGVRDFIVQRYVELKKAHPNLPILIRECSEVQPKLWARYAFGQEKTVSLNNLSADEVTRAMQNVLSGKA
UniProt Q9CQZ5: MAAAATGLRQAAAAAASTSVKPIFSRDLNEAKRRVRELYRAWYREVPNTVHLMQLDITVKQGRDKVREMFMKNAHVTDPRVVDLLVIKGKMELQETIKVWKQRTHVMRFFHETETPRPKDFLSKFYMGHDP
UniProt Q9Z1P6: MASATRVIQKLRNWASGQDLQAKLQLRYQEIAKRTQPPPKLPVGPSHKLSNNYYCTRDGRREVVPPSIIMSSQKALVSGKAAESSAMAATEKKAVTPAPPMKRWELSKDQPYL
UniProt Q7TMF3: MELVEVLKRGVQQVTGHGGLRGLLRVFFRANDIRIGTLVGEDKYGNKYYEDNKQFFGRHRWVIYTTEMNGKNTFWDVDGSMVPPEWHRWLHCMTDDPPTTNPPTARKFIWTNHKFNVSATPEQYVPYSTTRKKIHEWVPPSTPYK
UniProt Q3UIU2: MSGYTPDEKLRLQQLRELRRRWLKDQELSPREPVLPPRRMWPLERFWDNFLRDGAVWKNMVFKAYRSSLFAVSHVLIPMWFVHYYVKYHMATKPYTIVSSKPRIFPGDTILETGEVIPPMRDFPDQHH
UniProt Q9DCT2, residues 36-263: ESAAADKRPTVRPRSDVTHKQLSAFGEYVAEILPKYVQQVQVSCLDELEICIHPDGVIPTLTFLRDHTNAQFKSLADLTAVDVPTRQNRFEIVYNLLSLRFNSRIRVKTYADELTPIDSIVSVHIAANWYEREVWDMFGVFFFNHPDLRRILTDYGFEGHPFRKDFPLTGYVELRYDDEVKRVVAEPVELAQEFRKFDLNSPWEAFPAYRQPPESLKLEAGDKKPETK
UniProt Q9CXZ1, residues 43-175: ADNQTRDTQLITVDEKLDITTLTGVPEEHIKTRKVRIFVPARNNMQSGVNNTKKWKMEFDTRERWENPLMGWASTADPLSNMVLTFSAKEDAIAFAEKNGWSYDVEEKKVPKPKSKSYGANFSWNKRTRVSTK
UniProt P52503, residues 21-116: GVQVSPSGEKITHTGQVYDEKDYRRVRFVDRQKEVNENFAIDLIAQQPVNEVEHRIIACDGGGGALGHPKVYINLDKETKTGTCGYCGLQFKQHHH
UniProt Q6P5H2: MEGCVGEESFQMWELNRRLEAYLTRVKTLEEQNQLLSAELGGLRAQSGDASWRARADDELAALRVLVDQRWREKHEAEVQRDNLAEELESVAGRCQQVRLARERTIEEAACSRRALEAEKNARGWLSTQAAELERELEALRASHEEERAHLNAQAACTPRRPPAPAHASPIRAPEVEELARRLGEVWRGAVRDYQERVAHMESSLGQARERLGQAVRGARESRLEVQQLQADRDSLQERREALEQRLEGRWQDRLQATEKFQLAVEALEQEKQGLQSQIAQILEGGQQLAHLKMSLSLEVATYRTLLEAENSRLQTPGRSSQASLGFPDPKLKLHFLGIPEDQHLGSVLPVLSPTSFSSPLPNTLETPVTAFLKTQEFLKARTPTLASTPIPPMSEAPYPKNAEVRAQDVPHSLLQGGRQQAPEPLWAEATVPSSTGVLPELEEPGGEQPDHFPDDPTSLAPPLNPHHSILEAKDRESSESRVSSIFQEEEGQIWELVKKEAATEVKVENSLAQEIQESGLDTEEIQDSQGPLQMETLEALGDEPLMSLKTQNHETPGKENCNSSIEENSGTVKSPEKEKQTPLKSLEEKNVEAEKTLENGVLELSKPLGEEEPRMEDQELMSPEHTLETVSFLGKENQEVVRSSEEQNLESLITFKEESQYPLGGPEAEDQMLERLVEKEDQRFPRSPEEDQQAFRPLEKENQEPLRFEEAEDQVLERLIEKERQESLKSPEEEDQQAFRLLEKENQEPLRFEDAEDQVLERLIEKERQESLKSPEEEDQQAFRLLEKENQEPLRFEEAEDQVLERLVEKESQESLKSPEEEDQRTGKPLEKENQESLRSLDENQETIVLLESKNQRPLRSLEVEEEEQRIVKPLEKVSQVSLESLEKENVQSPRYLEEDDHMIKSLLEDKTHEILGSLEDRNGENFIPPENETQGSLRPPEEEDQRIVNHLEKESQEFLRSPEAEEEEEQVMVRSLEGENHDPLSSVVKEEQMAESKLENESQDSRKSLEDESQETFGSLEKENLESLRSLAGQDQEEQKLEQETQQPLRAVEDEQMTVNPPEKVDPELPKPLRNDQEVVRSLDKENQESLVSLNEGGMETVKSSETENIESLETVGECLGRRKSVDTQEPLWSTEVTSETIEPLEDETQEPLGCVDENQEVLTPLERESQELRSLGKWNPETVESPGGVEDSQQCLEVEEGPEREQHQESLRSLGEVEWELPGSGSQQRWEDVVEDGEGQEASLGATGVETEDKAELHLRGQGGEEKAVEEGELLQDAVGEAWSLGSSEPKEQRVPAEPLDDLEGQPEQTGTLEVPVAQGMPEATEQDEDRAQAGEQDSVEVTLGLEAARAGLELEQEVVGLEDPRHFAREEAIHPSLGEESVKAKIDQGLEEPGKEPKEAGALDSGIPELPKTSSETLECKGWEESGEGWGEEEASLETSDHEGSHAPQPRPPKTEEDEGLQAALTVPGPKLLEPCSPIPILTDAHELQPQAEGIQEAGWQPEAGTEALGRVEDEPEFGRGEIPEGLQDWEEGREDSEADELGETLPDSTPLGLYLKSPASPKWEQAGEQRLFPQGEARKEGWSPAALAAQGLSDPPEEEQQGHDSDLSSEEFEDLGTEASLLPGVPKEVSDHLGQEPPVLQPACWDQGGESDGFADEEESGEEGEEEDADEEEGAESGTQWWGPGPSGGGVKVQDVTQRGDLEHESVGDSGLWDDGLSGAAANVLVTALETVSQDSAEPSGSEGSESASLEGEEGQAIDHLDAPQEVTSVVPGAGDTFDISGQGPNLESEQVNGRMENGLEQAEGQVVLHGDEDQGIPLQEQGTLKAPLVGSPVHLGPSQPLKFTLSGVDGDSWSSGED
UniProt O70174, residues 31-629: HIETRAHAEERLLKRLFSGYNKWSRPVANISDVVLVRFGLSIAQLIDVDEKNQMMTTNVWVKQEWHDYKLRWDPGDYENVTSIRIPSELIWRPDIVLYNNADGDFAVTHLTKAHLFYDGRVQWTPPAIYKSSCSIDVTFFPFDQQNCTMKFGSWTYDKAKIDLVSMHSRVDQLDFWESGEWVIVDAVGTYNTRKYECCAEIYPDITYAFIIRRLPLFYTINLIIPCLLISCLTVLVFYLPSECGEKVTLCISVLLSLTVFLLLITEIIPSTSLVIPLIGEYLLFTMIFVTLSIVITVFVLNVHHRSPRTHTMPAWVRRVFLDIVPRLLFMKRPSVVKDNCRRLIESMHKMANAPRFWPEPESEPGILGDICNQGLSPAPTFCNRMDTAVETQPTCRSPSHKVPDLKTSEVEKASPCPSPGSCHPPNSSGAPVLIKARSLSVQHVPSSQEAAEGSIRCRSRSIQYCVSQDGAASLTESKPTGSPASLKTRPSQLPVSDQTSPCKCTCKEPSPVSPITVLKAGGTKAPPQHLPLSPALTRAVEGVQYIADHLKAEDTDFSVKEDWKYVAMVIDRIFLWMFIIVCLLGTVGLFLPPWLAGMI
UniProt Q62277: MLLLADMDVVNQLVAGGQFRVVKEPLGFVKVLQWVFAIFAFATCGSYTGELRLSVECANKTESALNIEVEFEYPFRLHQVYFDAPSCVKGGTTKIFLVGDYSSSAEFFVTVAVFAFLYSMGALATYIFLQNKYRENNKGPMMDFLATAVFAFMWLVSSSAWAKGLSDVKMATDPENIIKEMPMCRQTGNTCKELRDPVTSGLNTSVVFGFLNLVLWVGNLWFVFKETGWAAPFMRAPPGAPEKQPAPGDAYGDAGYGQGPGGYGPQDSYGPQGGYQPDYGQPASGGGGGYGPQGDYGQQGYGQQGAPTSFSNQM
UniProt Q9Z1G4: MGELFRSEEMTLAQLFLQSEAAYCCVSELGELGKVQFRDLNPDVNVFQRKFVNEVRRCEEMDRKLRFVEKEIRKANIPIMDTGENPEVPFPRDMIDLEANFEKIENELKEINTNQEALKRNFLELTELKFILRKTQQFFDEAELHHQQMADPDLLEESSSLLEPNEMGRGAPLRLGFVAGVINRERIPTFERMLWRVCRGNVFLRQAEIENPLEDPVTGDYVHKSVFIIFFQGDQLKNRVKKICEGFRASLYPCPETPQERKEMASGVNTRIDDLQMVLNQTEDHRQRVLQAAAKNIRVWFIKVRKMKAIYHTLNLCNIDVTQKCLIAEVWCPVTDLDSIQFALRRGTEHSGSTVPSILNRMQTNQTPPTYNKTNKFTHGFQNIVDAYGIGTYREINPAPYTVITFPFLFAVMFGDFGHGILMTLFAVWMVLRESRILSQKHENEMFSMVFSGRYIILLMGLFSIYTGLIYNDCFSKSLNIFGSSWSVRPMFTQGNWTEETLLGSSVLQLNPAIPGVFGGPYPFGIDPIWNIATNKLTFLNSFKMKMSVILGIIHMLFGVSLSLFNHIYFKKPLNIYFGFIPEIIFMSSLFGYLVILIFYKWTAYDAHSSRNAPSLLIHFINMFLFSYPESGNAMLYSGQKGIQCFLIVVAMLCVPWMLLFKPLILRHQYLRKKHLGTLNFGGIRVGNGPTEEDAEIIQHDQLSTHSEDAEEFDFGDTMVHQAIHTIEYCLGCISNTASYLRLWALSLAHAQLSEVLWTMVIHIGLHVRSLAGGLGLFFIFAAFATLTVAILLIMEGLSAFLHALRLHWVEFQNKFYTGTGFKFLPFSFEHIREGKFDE
UniProt P61264: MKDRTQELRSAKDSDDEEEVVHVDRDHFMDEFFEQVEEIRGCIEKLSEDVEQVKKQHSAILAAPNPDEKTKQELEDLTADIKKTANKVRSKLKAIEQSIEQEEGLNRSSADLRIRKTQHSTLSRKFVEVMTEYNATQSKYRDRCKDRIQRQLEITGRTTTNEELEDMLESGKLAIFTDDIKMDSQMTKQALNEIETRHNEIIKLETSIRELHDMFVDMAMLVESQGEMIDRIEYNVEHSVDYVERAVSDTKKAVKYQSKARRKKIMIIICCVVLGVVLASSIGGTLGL

B1: 14-3-3 protein theta (mouse) (protein, UniProt P68254 1-245)
chain: MEKTELIQKAKLAEQAERYDDMATCMKAVTEQGAELSNEERNLLSVAYKNVVGGRRSAWRVISSIEQKTDTSDKKLQLIKDYREKVESELRSICTTVLELLDKYLIANATNPESKVFYLKMKGDYFRYLAEVACGDDRKQTIENSQGAYQEAFDISKKEMQPTHPIRLGLALNFSVFYYEILNNPELACTLAKTAFDEAIAELDTLNEDSYKDSTLIMQLLRDNLTLWTSDSAGEECDAAEGAEN
B2: ADP/ATP translocase 1 (mouse) (protein, UniProt P48962 1-298)
chain: MGDQALSFLKDFLAGGIAAAVSKTAVAPIERVKLLLQVQHASKQISAEKQYKGIIDCVVRIPKEQGFLSFWRGNLANVIRYFPTQALNFAFKDKYKQIFLGGVDRHKQFWRYFAGNLASGGAAGATSLCFVYPLDFARTRLAADVGKGSSQREFNGLGDCLTKIFKSDGLKGLYQGFSVSVQGIIIYRAAYFGVYDTAKGMLPDPKNVHIIVSWMIAQSVTAVAGLVSYPFDTVRRRMMMQSGRKGADIMYTGTLDCWRKIAKDEGANAFFKGAWSNVLRGMGGAFVLVLYDEIKKYV

biological target: Neuronal acetylcholine receptor subunit β2 (mouse) (mouse (endogenous in cortex)) (UniProt Q9ERK7); experiment: affinity purification with mass spectrometry; β2*-nAChRs captured on mAb295-coupled M270 Dynabeads from a Triton X-100 extract of pooled mouse cortex membranes after DSP cross-linking; eight-plex iTRAQ LC-MS/MS; β2+/+, β2+/-, α4+/-β2+/- and β2-/- mice given saline or nicotine (4 mg/kg/h, 10 d); proteins found in both biological replicates

binding | Molecule
binds | ATP synthase subunit d, mito (mouse) (from UniProt Q9DCX2 1-161)
binds | ATP synthase subunit α, mito (mouse) (from UniProt Q03265 44-553)
binds | ATP synthase subunit β, mito (mouse) (from UniProt P56480 47-529)
binds | Calcium/calmodulin-dependent protein kinase type II subunit α (mouse) (from UniProt P11798 1-478)
binds | Calcium/calmodulin-dependent protein kinase type II subunit β (mouse) (from UniProt P28652 1-542)
binds | Excitatory amino acid transporter 2 (mouse) (from UniProt P43006 1-572)
binds | Glutamine synthetase (mouse) (from UniProt P15105 1-373)
binds | Guanine nucleotide-binding protein G(I)/G(S)/G(T) subunit β1 (mouse) (from UniProt P62874 1-340)
binds | Myelin basic protein (mouse) (from UniProt P04370-5)
binds | Myosin-10 (mouse) (from UniProt Q61879 1-1976)
binds | NADH dehydrogenase [ubiquinone] 1 α subcomplex subunit 2 (mouse) (from UniProt Q9CQ75 1-99)
binds | NADH dehydrogenase [ubiquinone] 1 α subcomplex subunit 6 (mouse) (from UniProt Q9CQZ5 1-131)
binds | NADH dehydrogenase [ubiquinone] 1 α subcomplex subunit 7 (mouse) (from UniProt Q9Z1P6 1-113)
binds | NADH dehydrogenase [ubiquinone] 1 α subcomplex subunit 9, mito (mouse) (from UniProt Q9DC69 36-377)
binds | NADH dehydrogenase [ubiquinone] 1 α subcomplex subunit 12 (mouse) (from UniProt Q7TMF3 1-145)
binds | NADH dehydrogenase [ubiquinone] 1 β subcomplex subunit 5, mito (mouse) (from UniProt Q9CQH3 47-189)
binds | NADH dehydrogenase [ubiquinone] 1 β subcomplex subunit 6 (mouse) (from UniProt Q3UIU2 1-128)
binds | NADH dehydrogenase [ubiquinone] 1 β subcomplex subunit 8, mito (mouse) (from UniProt Q9D6J5 29-186)
binds | NADH dehydrogenase [ubiquinone] flavoprotein 1, mito (mouse) (from UniProt Q91YT0 21-464)
binds | NADH dehydrogenase [ubiquinone] iron-sulfur protein 2, mito (mouse) (from UniProt Q91WD5 34-463)
binds | NADH dehydrogenase [ubiquinone] iron-sulfur protein 3, mito (mouse) (from UniProt Q9DCT2 36-263)
binds | NADH dehydrogenase [ubiquinone] iron-sulfur protein 4, mito (mouse) (from UniProt Q9CXZ1 43-175)
binds | NADH dehydrogenase [ubiquinone] iron-sulfur protein 6, mito (mouse) (from UniProt P52503 21-116)

binding | Molecule
binds | NADH dehydrogenase [ubiquinone] iron-sulfur protein 7, mito (mouse) (from UniProt Q9DC70 36-224)
binds | NADH dehydrogenase [ubiquinone] iron-sulfur protein 8, mito (mouse) (from UniProt Q8K3J1 35-212)
binds | NADH-ubiquinone oxidoreductase 75 kDa subunit, mito (mouse) (from UniProt Q91VD9 24-727)
binds | Nestin (mouse) (from UniProt Q6P5H2 1-1864)
binds | Neuronal acetylcholine receptor subunit α4 (mouse) (from UniProt O70174 31-629)
binds | Neuronal acetylcholine receptor subunit α5 (mouse) (from UniProt Q2MKA5 30-467)
binds | Prohibitin-2 (mouse) (from UniProt O35129 1-299)
binds | Spectrin α chain, nonerythrocytic 1 (mouse) (from UniProt P16546 1-2472)
binds | Spectrin β chain, nonerythrocytic 1 (mouse) (from UniProt Q62261 1-2363)
binds | Synaptophysin (mouse) (from UniProt Q62277 1-314)
binds | Synaptosomal-associated protein 25 (mouse) (from UniProt P60879 1-206)
binds | Synaptotagmin-1 (mouse) (from UniProt P46096 1-421)
binds | Tropomyosin α3 chain (mouse) (from UniProt P21107 1-285)
binds | Tubulin α4A chain (mouse) (from UniProt P68368 1-448)
binds | Tubulin β4A chain (mouse) (from UniProt Q9D6F9 1-444)
binds | Tubulin β4B chain (mouse) (from UniProt P68372 1-445)
binds | Tubulin β5 chain (mouse) (from UniProt P99024 1-444)
binds | V-type proton ATPase 116 kDa subunit a isoform 1 (mouse) (from UniProt Q9Z1G4 1-839)
binds | V-type proton ATPase catalytic subunit A (mouse) (from UniProt P50516 1-617)
binds | Voltage-dependent anion-selective channel protein 1 (mouse) (from UniProt Q60932 1-296)
binds | B1
binds | B2

Molecule | binding
Syntaxin-1B (mouse) (from UniProt P61264 1-288) | binds
